Consider 63 molecules from PubChem BioAssay AID493014 (National Center for Advancing Translational Sciences (NCATS), 2011).

The experiment in a line: qHTS Assay to Find Inhibitors of Chronic Active B-Cell Receptor Signaling. The note with it: ABC-DLBCL IkBa-CBG/CBR reporter, luminescence ratio (green luciferase fused to IkBa over red control in TMD8 lymphoma cells), 4 h. In a few lines: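 Cell line TMD8 (human ABC DLBCL), stably expressing tet-inducible CBG68-IkBa fusion and CBR; IMDM/0.5% FBS; cpd up to 46 uM; dox induction, 4 h, 37C/5% CO2; dual luminescence; green/red ratio; MG132 control.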

Where [1] appears, read: measured here: CBR red luminescence, cell number.
Setting [2] is: measured here: IkBa-CBG green luminescence.

This is one part of the list. Further columns of the screen follow, without active or inactive calls. Most of these compounds were active or inconclusive in the main read-out, so they are no random draw. Words in brackets tell the shape of the fitted curve; partial curves, single points and poor fits give uncertain potencies.

In the case of `Cc1cc(C)nc(SCC(=O)Nc2ccc(N3CCOCC3)c(Cl)c2)n1`, the AC50 under setting [1] was 18.4 µM [rising, partial curve, poor fit].
Regarding `CCOc1ccc(OCCC(=O)NNC(=O)c2ccncc2)cc1`, the AC50 under setting [1] was 29.1 µM [rising, single point].
On the same count and under the same terms, the figure for `CC(C)c1ccc(S(=O)(=O)N2CCN(CCC(=O)Nc3ccc(N(C)C)cc3)CC2)cc1` is 32.6 µM [rising, partial curve, poor fit]; for `COc1cc(C2SC(C)C(=O)N2CCc2ccccc2)cc(OC)c1OC` (stereo unspecified) it is 15.8 µM [falling, partial curve, poor fit].
Same read-out and setting: the figure for `COc1cc2nc(CN(C)Cc3ccc(C(C)(C)C)cc3)[nH]c(=O)c2cc1OC` is 15.8 µM [rising, single point]; for `Cc1ccc(-n2cccc2/C=N/n2cnnc2)cc1Cl` it is 0.366 µM [rising, full curve, poor fit]; for `CC(=O)c1ccc(N2CCN(S(=O)(=O)c3c(C)[nH]c(C)c3C(=O)N3CCCC3)CC2)cc1` it is 3.55 µM [rising, partial curve, poor fit].
Same read-out and setting: the figure for `CCc1ccc(OCC(=O)NCCOc2ccccc2)cc1` is 23.1 µM [rising, partial curve]; for `N#C/C(=C\c1cccs1)C(=O)Nc1nccs1` it is 35.5 µM [falling, single point]; for `Cc1ccccc1NC(=O)Cn1nc(C)n2cccc2c1=O` it is 35.5 µM [rising, single point].
As for `CC1(C)Cc2nc3sc4c(=O)[nH]cnc4c3cc2CS1`, under setting [1], the AC50 is 1.16 µM [rising, partial curve, poor fit].
On to `COc1ccc(Cl)cc1NC(=S)NCCSc1ccc(C)cc1`, for which the AC50 reads like this: under setting [1], 20.6 µM [falling, single point]; under setting [2], 23.1 µM [rising, single point].
As for `CC(C)OP(=O)(OC(C)C)/C(C=O)=N\Nc1ccc([N+](=O)[O-])cc1`, under setting [1], the AC50 is 3.16 µM [rising, partial curve, poor fit].
The same measure, in the same setting: the figure for `Clc1ccc(-c2c[n+](Cc3ccc(Cl)c(Cl)c3)c3n2CCC3)cc1` is 9.2 µM [falling, partial curve].
Turning to `CC(=O)Nc1ccc2nc3ccccc3nc2c1`, the AC50 runs as follows: under setting [1], 5.62 µM [falling, partial curve]; under setting [2], 2.82 µM [rising, partial curve, poor fit].
Consider `Cc1ccc(C(C)C)c(OCC(=O)Nc2ccc3c(c2)nc(CN2CCCC2)n3C)c1`, for which the AC50 under setting [1] was 3.26 µM [falling, single point].
The same measure, in the same setting: the figure for `CCn1cnc2c1c(=O)n(Cc1csc(-c3ccccc3)n1)c(=O)n2Cc1ccccc1` is 15.8 µM [falling, single point].
Same read-out and setting: the figure for `Cc1cccc(-c2nc(Nc3cccc(O)c3)c3ccccc3n2)c1` is 12.6 µM [falling, single point]; for `Cc1ccc2c(CN3C(=O)NC(C)(c4ccc5c(c4)OCO5)C3=O)cc(=O)oc2c1` (stereo unspecified) it is 35.5 µM [falling, single point]; for `CN(c1ccccc1C(=O)Nc1ccc2c(c1)OCO2)S(C)(=O)=O` it is 29.1 µM [rising, single point].
On the same count and under the same terms, the figure for `Cc1cccc(NC(=O)CN2CCN(C(=O)c3ccc(OCc4cn5ccccc5n4)cc3)CC2)c1C` is 0.103 µM [rising, full curve, poor fit]; for `Cc1ccc(-c2nnn(CC(=O)NC3CC4CCC3C4)n2)cc1` (stereo unspecified) it is 20.6 µM [rising, partial curve, poor fit].
For `COc1cccc(CNc2nc3nc(C)c(Cl)c(C)n3n2)c1`, the AC50 under setting [1] is 4.61 µM [falling, partial curve].
Same read-out and setting: the figure for `Cc1cc(C)cc(NC(=O)C(OC(=O)C2=COCCO2)c2ccccc2)c1` (stereo unspecified) is 32.6 µM [falling, partial curve, poor fit]; for `COc1ccc(-c2ccc(CCC(=O)O)n2Cc2ccco2)cc1` it is 12.6 µM [rising, partial curve, poor fit].
Take `CCc1noc(C)c1C(=O)N(CC)CC(=O)NCc1ccc(Cl)cc1`: the AC50 under setting [1] was 6.51 µM [rising, single point].
Still for that read-out and setting: the figure for `CCOC(=O)C1CCN(C(=O)COc2ccc3c(c2)OCO3)CC1` is 8.91 µM [falling, partial curve].
The same measure, in the same setting: the figure for `O=[N+]([O-])c1cccc(CN2CCN(c3cccc4[nH]ccc34)CC2)c1` is 5.01 µM [rising, single point].
Same read-out and setting: the figure for `CCCCNC(=O)Nc1nnc(-c2ccccc2)o1` is 7.31 µM [falling, partial curve]; for `Cc1csc(NC(=O)CCC(=O)N(CC(=O)NC2CCCC2)Cc2ccccc2)n1` it is 10 µM [falling, partial curve].
On to `Cc1cc2nc(-c3ccccn3)c(-c3ccccn3)nc2cc1C`, for which the AC50 under setting [1] was 1 µM [rising, full curve, poor fit].
As for `COc1cc(OC)cc(C(=O)NCc2cc(C)nc3ccccc23)c1`, the AC50 under setting [2] was 20 µM [falling, partial curve, poor fit].
As to `Cc1ccccc1NC(=O)CSc1nnc(-c2ccoc2C)n1CCc1ccccc1`, under setting [1], the AC50 is 11.2 µM [falling, partial curve, poor fit].
The same measure, in the same setting: the figure for `CCCCN(C)CCCNC(=O)C1(O)c2ccccc2NC(=O)N1c1ccc(Cl)cc1` (stereo unspecified) is 3.16 µM [falling, partial curve, poor fit]; for `O=C1C=C(c2ccc(Cl)c(C(F)(F)F)c2)C[C@@H](c2ccc(Cl)cc2)C1` it is 0.0058 µM [rising, full curve, poor fit].
Same read-out and setting: the figure for `CCOc1ccc(/C=C/C(=O)NC2CCCCC2)cc1` is 11.2 µM [rising, single point]; for `COCCCNC(=S)N1CCC(NC(=O)Nc2ccc(C)cc2)CC1` it is 3.98 µM [rising, full curve, poor fit].
On to `COc1ccc2oc(C(=O)N3CCN(S(=O)(=O)c4cccc([N+](=O)[O-])c4)CC3)c(C)c2c1`, for which, under setting [1], the AC50 is 14.1 µM [rising, partial curve, poor fit].
With `CC(=O)Oc1ccc2oc(C)c(C(=O)N3CCOCC3)c2c1`, the half-maximal activity concentration (AC50) under setting [1] is 15.8 µM [rising, single point].
Still for that read-out and setting: the figure for `COc1ccc(S(=O)(=O)N2CCCCCC2)cc1NC(=O)CN1C(=O)NC(C)(c2ccc(C)cc2)C1=O` (stereo unspecified) is 8.2 µM [rising, partial curve, poor fit]; for `O=C(Nc1ncc(Cc2cccc(Cl)c2)s1)C1CCCO1` (stereo unspecified) it is 4.47 µM [rising, full curve]; for `CC(=O)Nc1nc(NC(=O)C(Cl)(Cl)Cl)n(-c2ccccc2)n1` it is 0.631 µM [rising, full curve, poor fit].
The same measure, in the same setting: the figure for `C=CCNc1oc(/C=C/c2ccccc2)nc1C#N` is 2.24 µM [rising, partial curve, poor fit]; for `O=C(O)CC1(CC(=O)NCc2ccc(Cl)cc2)CCCCC1` it is 15.8 µM [rising, single point]; for `COc1cccc(NC(=O)c2ccco2)c1` it is 0.206 µM [falling, full curve].
Still for that read-out and setting: the figure for `CN(c1ccccc1)S(=O)(=O)c1ccc(NC(=S)Nc2ccccc2)cc1` is 8.91 µM [rising, partial curve, poor fit].
Turning to `O=C(CCC(=O)Nc1nnc(C2CCCCC2)s1)Nc1ccc(F)cc1`, under setting [1], the AC50 is 5.62 µM [rising, single point].
Regarding `CC1(C)Cc2c(C#N)c(N3CCCC3)nc(-c3ccco3)c2CO1`, under setting [1], the AC50 is 0.708 µM [falling, full curve, poor fit].
For `CC1CC(C)CN(S(=O)(=O)c2ccc3c(c2)CCN3C(=O)C2CC2)C1` (stereo unspecified), the AC50 under setting [1] is 35.5 µM [rising, single point].
In the case of `COc1ccccc1N1CCN(C(=O)CSc2nnc3c4ccccc4nc(Cc4ccccc4)n23)CC1`, the AC50 under setting [1] is 0.116 µM [rising, full curve, poor fit].
Take `CC/C(=N\NC(=S)NC(C)C)c1ccc(OC)c(OC)c1`: the AC50 under setting [1] was 22.4 µM [falling, single point] and the AC50 under setting [2] is 22.4 µM [falling, single point].
`COc1cc(/C=N\NC(=O)c2ccc(Cn3nc([N+](=O)[O-])c(Cl)c3C)o2)ccc1O`: under setting [1], the AC50 was 16.4 µM [falling, single point].
The same measure, in the same setting: the figure for `CCOC(=O)C1=C(c2cccc(Oc3ccccc3)c2)NC(=S)NC1C` (stereo unspecified) is 32.6 µM [falling, partial curve, poor fit]; for `O=C(CN(c1ccccc1)S(=O)(=O)c1ccccc1)Nc1ccccc1C(=O)NCc1ccco1` it is 9.2 µM [falling, partial curve].
On the same count and under the same terms, the figure for `O=S(=O)(c1ccc(C2CCCCC2)cc1)N1CCCC1` is 0.282 µM [rising, full curve, poor fit]; for `Cc1ccc(NC(=O)COC(=O)c2sccc2C)cc1S(=O)(=O)N1CCOCC1` it is 11.6 µM [falling, partial curve, poor fit].
In the case of `CCN1/C(=C/c2ccc3cc(C)ccc3[n+]2C)Sc2ccc3sccc3c21`, under setting [1], the AC50 was 12.6 µM [falling, partial curve, poor fit].
On the same count and under the same terms, the figure for `Cc1ccc(C)c(S(=O)(=O)N2CCCOC2CNC(=O)C(=O)NC2CCCCC2)c1` (stereo unspecified) is 12.6 µM [falling, partial curve].
For the molecule `COc1ccc(NC(=O)c2cc3ccc(O)cc3o/c2=N\O)cc1`, the AC50 under setting [2] is 15.8 µM [rising, partial curve, poor fit].
For `Cc1cccc(-c2noc(CCC(=O)Nc3ccccc3)n2)c1`, the half-maximal activity concentration (AC50) under setting [1] was 6.51 µM [rising, full curve, poor fit].
Same read-out and setting: the figure for `Cc1sc2nc(-c3ccccc3)oc(=O)c2c1C` is 0.562 µM [falling, full curve]; for `COc1ccc(NC(=O)CCCC(=O)c2ccccc2)cc1` it is 35.5 µM [rising, single point]; for `Cc1ccn2c(NC(=O)C(C)(C)Oc3ccc(Cl)cc3)c(-c3cccs3)nc2c1` it is 5.8 µM [rising, partial curve, poor fit].
